Source: the supplement of paper PMC10849652
The list shows a part of the results.

Amino acid sequences for entries named in this document (tags omitted). A change or cut given only in a name is not applied to a line headed by its entry.
UniProt Q9UBU9: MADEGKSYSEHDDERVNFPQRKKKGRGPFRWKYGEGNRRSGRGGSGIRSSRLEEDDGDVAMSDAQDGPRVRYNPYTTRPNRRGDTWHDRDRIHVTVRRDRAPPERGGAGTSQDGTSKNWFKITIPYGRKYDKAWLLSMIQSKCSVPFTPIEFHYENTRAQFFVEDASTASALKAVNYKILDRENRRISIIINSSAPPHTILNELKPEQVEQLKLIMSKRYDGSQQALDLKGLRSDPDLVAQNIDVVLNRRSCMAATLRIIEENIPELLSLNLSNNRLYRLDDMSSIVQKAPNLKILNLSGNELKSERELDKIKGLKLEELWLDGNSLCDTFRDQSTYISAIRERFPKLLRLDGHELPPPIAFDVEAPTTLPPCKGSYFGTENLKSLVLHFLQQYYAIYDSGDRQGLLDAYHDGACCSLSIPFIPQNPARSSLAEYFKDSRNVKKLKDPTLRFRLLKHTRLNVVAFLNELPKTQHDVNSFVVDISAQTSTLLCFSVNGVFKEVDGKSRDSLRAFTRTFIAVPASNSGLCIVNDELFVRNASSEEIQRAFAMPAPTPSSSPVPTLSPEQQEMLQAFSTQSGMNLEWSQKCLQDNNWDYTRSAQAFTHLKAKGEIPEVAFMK
UniProt Q12769: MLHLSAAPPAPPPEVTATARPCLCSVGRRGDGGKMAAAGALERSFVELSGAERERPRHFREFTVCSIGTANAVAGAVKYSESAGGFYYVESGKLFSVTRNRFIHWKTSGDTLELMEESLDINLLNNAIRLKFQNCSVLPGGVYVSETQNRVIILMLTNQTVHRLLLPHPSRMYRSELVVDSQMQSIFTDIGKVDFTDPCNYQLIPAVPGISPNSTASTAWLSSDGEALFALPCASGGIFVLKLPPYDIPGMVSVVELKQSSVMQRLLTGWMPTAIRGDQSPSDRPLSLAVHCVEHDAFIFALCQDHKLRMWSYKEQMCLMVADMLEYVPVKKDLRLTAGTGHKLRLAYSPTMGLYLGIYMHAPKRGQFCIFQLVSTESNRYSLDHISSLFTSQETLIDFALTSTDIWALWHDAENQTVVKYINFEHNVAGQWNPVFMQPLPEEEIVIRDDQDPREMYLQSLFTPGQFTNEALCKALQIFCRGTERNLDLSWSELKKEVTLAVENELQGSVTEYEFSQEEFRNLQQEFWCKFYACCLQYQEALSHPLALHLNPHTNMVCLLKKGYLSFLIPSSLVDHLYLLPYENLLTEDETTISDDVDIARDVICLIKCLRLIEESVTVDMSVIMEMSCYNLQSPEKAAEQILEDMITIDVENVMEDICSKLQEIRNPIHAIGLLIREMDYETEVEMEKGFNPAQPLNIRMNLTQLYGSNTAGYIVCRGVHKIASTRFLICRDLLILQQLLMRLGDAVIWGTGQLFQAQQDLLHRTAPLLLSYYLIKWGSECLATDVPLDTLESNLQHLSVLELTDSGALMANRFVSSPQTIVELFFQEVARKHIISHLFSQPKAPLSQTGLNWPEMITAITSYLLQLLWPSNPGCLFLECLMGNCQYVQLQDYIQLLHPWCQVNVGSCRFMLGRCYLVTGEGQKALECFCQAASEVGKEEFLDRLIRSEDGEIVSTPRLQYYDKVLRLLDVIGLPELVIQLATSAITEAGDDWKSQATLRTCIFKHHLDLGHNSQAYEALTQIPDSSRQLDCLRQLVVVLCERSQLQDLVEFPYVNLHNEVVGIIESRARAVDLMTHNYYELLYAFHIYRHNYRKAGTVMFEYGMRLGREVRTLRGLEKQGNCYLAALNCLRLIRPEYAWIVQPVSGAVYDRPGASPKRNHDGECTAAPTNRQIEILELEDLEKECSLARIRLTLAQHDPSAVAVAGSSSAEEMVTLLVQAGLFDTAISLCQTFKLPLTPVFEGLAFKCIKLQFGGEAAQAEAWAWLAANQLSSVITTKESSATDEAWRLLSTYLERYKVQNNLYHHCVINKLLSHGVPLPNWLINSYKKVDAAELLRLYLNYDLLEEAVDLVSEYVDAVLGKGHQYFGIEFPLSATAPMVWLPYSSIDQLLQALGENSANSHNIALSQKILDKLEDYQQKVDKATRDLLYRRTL
UniProt P61970, whole entry, looked up: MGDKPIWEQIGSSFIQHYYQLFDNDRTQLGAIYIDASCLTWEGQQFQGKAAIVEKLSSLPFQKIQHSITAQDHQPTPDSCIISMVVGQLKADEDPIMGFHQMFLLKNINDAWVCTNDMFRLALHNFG
UniProt O75459: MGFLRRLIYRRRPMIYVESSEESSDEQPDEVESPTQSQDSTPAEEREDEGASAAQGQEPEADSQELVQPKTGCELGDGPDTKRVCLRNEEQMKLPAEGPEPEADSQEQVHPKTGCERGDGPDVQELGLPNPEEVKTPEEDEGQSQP
UniProt Q96CV9, whole entry, looked up: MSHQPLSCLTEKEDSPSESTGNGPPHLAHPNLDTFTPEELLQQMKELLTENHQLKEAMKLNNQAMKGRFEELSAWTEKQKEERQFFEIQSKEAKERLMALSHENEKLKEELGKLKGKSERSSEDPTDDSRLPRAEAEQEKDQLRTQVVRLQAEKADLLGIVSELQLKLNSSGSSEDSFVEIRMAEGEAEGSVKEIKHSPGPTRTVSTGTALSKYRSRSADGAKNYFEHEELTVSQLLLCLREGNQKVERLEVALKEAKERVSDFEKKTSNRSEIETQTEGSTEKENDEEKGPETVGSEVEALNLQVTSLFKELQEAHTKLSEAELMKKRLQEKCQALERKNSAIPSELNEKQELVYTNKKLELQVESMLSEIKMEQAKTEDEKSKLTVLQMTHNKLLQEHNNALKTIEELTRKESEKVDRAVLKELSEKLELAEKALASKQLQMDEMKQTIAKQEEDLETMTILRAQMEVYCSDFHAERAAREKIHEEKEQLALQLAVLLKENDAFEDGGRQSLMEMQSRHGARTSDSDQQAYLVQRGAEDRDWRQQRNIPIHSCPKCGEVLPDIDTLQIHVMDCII
UniProt O60502: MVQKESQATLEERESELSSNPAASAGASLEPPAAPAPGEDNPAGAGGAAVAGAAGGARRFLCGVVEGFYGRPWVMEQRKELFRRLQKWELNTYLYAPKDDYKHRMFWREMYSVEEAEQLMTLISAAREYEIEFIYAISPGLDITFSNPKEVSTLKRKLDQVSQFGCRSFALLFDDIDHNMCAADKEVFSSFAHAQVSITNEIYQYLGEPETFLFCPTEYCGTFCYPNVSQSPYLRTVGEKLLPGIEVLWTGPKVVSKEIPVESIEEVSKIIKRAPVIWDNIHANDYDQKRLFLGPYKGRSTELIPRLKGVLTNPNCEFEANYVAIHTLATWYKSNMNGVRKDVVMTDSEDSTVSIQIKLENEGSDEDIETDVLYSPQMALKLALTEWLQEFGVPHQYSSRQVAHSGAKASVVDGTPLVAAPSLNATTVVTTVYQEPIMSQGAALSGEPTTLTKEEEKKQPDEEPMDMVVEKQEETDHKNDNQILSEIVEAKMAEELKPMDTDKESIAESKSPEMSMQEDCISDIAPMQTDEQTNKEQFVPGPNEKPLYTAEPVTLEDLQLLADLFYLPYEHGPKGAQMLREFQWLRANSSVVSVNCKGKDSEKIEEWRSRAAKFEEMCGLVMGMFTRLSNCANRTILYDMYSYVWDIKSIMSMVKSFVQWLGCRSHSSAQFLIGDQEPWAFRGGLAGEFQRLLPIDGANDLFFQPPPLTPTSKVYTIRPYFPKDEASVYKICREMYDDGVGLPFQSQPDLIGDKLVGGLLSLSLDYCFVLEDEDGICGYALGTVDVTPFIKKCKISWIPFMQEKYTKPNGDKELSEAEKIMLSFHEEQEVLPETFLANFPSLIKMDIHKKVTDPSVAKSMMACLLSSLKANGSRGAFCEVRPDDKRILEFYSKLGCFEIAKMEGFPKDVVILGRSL
UniProt Q8N573: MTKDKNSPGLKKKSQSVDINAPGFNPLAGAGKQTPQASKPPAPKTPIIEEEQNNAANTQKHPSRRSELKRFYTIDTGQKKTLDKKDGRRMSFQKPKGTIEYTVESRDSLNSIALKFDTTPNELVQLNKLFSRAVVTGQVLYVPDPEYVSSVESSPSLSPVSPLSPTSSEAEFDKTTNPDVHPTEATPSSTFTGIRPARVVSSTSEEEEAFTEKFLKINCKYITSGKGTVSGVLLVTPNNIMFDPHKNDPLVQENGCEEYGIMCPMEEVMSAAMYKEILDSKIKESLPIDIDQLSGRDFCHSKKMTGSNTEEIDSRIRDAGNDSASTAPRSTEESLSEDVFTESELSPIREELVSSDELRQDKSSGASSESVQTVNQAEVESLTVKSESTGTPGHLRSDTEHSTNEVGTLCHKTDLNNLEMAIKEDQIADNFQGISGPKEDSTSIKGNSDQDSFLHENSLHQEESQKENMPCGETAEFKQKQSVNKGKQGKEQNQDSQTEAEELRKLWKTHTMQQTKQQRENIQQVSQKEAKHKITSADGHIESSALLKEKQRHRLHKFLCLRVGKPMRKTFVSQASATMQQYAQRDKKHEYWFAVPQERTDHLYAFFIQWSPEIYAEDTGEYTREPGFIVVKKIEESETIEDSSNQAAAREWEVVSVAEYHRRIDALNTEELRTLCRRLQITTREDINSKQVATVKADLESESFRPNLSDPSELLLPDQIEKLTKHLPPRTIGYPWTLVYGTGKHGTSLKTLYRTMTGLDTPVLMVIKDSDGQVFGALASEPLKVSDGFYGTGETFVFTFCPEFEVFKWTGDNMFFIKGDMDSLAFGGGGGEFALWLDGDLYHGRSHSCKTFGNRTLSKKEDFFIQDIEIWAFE
UniProt Q9BRP4: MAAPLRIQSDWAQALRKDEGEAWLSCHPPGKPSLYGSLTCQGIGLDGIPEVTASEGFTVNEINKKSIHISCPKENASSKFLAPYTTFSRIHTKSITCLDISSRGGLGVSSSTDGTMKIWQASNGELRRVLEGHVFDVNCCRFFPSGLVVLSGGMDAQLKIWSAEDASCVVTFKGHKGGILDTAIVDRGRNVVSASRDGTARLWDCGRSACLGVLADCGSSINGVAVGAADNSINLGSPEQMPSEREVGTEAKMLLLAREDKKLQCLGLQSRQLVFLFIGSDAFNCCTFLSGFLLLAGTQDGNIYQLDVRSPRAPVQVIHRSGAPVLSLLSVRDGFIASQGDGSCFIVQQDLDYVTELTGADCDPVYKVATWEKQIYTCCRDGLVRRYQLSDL
UniProt P51003: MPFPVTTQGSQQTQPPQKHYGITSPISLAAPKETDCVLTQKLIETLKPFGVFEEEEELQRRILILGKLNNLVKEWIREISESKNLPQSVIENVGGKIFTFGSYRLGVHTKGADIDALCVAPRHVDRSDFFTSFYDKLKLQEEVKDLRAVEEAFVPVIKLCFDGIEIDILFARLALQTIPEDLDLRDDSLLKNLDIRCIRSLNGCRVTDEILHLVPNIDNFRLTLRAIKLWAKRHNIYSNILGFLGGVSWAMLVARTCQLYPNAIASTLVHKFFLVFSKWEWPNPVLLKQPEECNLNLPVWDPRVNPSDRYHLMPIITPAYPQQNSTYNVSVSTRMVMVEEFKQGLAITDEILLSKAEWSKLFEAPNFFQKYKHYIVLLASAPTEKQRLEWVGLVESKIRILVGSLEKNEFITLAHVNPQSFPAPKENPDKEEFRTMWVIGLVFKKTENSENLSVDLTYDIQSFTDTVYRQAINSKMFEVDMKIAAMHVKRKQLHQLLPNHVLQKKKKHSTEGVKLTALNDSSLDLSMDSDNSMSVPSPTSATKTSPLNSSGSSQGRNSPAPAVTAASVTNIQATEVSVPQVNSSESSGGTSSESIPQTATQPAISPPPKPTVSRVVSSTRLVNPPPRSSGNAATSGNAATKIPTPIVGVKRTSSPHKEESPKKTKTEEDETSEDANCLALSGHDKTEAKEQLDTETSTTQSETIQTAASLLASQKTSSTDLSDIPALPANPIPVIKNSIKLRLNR
UniProt O95747, whole entry, looked up: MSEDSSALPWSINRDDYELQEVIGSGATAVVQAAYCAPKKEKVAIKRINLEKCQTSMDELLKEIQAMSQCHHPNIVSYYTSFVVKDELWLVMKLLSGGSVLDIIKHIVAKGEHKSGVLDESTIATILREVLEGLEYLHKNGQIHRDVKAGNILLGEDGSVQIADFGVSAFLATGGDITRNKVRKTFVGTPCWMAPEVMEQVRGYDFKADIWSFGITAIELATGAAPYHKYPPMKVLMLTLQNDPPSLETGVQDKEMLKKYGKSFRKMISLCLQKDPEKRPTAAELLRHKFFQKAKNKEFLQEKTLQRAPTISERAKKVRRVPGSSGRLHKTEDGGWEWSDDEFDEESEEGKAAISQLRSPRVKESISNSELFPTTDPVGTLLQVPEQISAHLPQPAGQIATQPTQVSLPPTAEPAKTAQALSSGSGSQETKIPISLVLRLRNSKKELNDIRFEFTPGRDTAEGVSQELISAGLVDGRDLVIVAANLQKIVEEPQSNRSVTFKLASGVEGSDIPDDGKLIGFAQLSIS

How the values were obtained:
Assay in all cases: log2 fold change, soluble protein after heating vs DMSO (PISA); higher = thermal stabilisation; K562 lysate, 10 uM; active = over 0.2 and 3.5 SD of the protein, either way, in both replicates (recomputed)
vemurafenib = compound: CCCS(=O)(=O)Nc1ccc(F)c(C(=O)c2c[nH]c3ncc(-c4ccc(Cl)cc4)cc23)c1F [vemurafenib]
Procedure, shortened: (§1)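 K562 pellets were dounce-homogenised in PBS pH 7.4 with 1 mM MgCl2, and the crude extract at 1 mg/mL protein was treated with 10 μM compound for 30 min. Aliquots were heated for 3 min across 48°C-58°C, pooled, and brought to 0.5% NP-40 at 4°C; soluble protein was the supernatant after 21,000xg for 90 min. Soluble protein was quantified by TMTpro 16plex LC-MS/MS with channel sums equalised, and reported as log2 fold change in thermal stability against DMSO controls, with values from duplicates.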

[1] = compound: CCCS(=O)(=O)Nc1ccc(F)c(C(=O)c2c[nH]c3ncc(Cl)cc23)c1F
Procedure, shortened: as §1

barasertib = compound: CCN(CCCOc1ccc2c(Nc3cc(CC(=O)Nc4cccc(F)c4)[nH]n3)ncnc2c1)CCOP(=O)(O)O [barasertib]
Procedure, shortened: as §1

[2] = compound: CC[C@@H]1C(=O)N(C)c2cnc(Nc3ccc(C(=O)NC4CCN(C)CC4)cc3OC)nc2N1C1CCCC1
Procedure, shortened: as §1

volasertib = compound: CC[C@@H]1C(=O)N(C)c2cnc(Nc3ccc(C(=O)N[C@H]4CC[C@H](N5CCN(CC6CC6)CC5)CC4)cc3OC)nc2N1C(C)C [volasertib]
Procedure, shortened: as §1

[3] = compound: CCn1c(C(=O)N(C2CC2)C2CC2)cc2c3c(ncn3C)c(Nc3cc(C)n(C)n3)nc21
Procedure, shortened: as §1

[4] = compound: CCn1cc(-c2ccnc3[nH]c(-c4cccc(CN(C)C)c4)cc23)c(-c2ccc(NC(=O)N(C)C)cc2)n1
Procedure, shortened: as §1

[5] = compound: CN1CCC(CNc2ccc3ncc(-c4cccc(OC(F)(F)F)c4)n3n2)CC1
Procedure, shortened: as §1

saracatinib = compound: CN1CCN(CCOc2cc(OC3CCOCC3)c3c(Nc4c(Cl)ccc5c4OCO5)ncnc3c2)CC1 [saracatinib]
Procedure, shortened: as §1

sotrastaurin = compound: CN1CCN(c2nc(C3=C(c4c[nH]c5ccccc45)C(=O)NC3=O)c3ccccc3n2)CC1 [sotrastaurin]
Procedure, shortened: as §1

alvocidib = compound: CN1CC[C@H](c2c(O)cc(O)c3c(=O)cc(-c4ccccc4Cl)oc23)[C@H](O)C1 [alvocidib]
Procedure, shortened: as §1

Tubastatin A = compound: CN1CCc2c(c3ccccc3n2Cc2ccc(C(=O)NO)cc2)C1 [Tubastatin A]
Procedure, shortened: as §1

[6] = compound: CNC(=O)C1=CC=CC=C1NC2=NC(=NC=C2Cl)NC3=C(C=C(C=C3)N4CCOCC4)OC
Procedure, shortened: as §1

defactinib = compound: CNC(=O)c1ccc(Nc2ncc(C(F)(F)F)c(NCc3nccnc3N(C)S(C)(=O)=O)n2)cc1 [defactinib]
Procedure, shortened: as §1

[7] = compound: CNc1nc(-c2ccc3c(N)n[nH]c3c2)cc(N2C[C@@H](C(=O)NC3CCCCC3)CC[C@H]2C)n1
Procedure, shortened: as §1

encorafenib = compound: COC(=O)N[C@@H](C)CNc1nccc(-c2cn(C(C)C)nc2-c2cc(Cl)cc(NS(C)(=O)=O)c2F)n1 [encorafenib]
Procedure, shortened: as §1

[8] = compound: COC(=O)[C@H](CCSC)NC(=O)C1=C(C=C(C=C1)NC[C@H](CS)N)C2=CC=CC=C2
Procedure, shortened: as §1

alisertib = compound: COc1cc(Nc2ncc3c(n2)-c2ccc(Cl)cc2C(c2c(F)cccc2OC)=NC3)ccc1C(=O)O [alisertib]
Procedure, shortened: as §1

[9] = compound: COc1cc2nc(-c3cc(F)ccc3O)nc(N[C@@H]3CNC[C@H]3C(C)(C)O)c2cc1OC
Procedure, shortened: as §1

gefitinib = compound: COc1cc2ncnc(Nc3ccc(F)c(Cl)c3)c2cc1OCCCN1CCOCC1 [gefitinib]
Procedure, shortened: as §1

Measured: log2 fold change

PAF1 (UniProt Q8N7H5)
inactive: vemurafenib 0.019 | [1] 0.031 | barasertib -0.001 | [2] -0.017 | volasertib -0.015 | [3] -0.023 | [4] -0.027 | [5] -0.011 | saracatinib 0.007 | sotrastaurin 0.005 | alvocidib 0.006 | Tubastatin A -0.034 | [6] 0.021 | defactinib 0.003 | [7] -0.011 | encorafenib -0.005 | [8] 0.033 | alisertib -0.02 | [9] 0.019 | gefitinib 0.007

NXF1 (UniProt Q9UBU9)
inactive: vemurafenib -0.024 | [1] -0.005 | barasertib 0.061 | [2] -0.001 | volasertib -0.074 | [3] -0.017 | [4] 0.364 | [5] -0.149 | saracatinib 0.029 | sotrastaurin 0.001 | alvocidib 0.027 | Tubastatin A -0.096 | [6] 0.083 | defactinib -0.034 | [7] 0.038 | encorafenib -0.001 | [8] 0.17 | alisertib 0 | [9] 0.057 | gefitinib -0.017

OSBP (UniProt P22059)
inactive: vemurafenib -0.052 | [1] -0.007 | barasertib -0.004 | [2] -0.076 | volasertib -0.091 | [3] 0.041 | [4] -0.045 | [5] -0.032 | saracatinib 0.011 | sotrastaurin 0.026 | alvocidib 0 | Tubastatin A 0.06 | [6] -0.193 | defactinib -0.009 | [7] -0.155 | encorafenib 0.017 | [8] 0.001 | alisertib 0.026 | [9] 0.042 | gefitinib -0.045

NUP160 (UniProt Q12769)
inactive: vemurafenib -0.039 | [1] 0.02 | barasertib 0.052 | [2] -0.106 | volasertib -0.105 | [3] 0.043 | [4] 0.057 | [5] -0.058 | saracatinib 0.043 | sotrastaurin -0.01 | alvocidib 0.029 | Tubastatin A -0.143 | [6] 0.045 | defactinib 0.004 | [7] -0.03 | encorafenib 0.059 | [8] -0.195 | alisertib 0.015 | [9] 0.004 | gefitinib 0.031

NUTF2 (UniProt P61970)
inactive: vemurafenib -0.05 | [1] -0.014 | barasertib 0.097 | [2] 0.039 | volasertib 0.01 | [3] 0.025 | [4] -0.024 | [5] -0.043 | saracatinib -0.042 | sotrastaurin 0.008 | alvocidib 0.042 | Tubastatin A 0.034 | [6] 0.026 | defactinib 0.116 | [7] 0.008 | encorafenib 0.003 | [8] 0.033 | alisertib -0.001 | [9] -0.075 | gefitinib -0.09

PAGE1 (UniProt O75459)
inactive: vemurafenib 0.026 | [1] -0.016 | barasertib -0.064 | [2] 0.08 | volasertib 0.071 | [3] -0.019 | [4] -0.013 | [5] -0.004 | saracatinib 0.028 | sotrastaurin 0.05 | alvocidib 0.048 | Tubastatin A 0.069 | [6] -0.01 | defactinib -0.047 | [7] 0.018 | encorafenib 0.017 | [8] -0.2 | alisertib 0.008 | [9] -0.028 | gefitinib -0.019

OPTN (UniProt Q96CV9)
inactive: vemurafenib -0.001 | [1] 0.031 | barasertib 0.021 | [2] 0.043 | volasertib -0.004 | [3] -0.024 | [4] -0.006 | [5] 0.009 | saracatinib 0.072 | sotrastaurin 0.025 | alvocidib 0.012 | Tubastatin A 0.024 | [6] -0.002 | defactinib 0.082 | [7] 0.036 | encorafenib 0.022 | [8] -0.047 | alisertib -0.049 | [9] -0.007 | gefitinib 0.003

OXNAD1 (UniProt Q96HP4)
inactive: vemurafenib -0.031 | [1] -0.003 | barasertib 0.05 | [2] -0.061 | volasertib -0.054 | [3] 0.014 | [4] -0.017 | [5] -0.056 | saracatinib 0.018 | sotrastaurin 0.062 | alvocidib 0.002 | Tubastatin A -0.067 | [6] -0.095 | defactinib 0.018 | [7] -0.057 | encorafenib 0.029 | [8] 0.129 | alisertib 0.017 | [9] -0.023 | gefitinib -0.005

2 entries drawn at random from those above:
NUP160 (UniProt Q12769)
inactive: vemurafenib -0.039 | [1] 0.02 | barasertib 0.052 | [2] -0.106 | volasertib -0.105 | [3] 0.043 | [4] 0.057 | [5] -0.058 | saracatinib 0.043 | sotrastaurin -0.01 | alvocidib 0.029 | Tubastatin A -0.143 | [6] 0.045 | defactinib 0.004 | [7] -0.03 | encorafenib 0.059 | [8] -0.195 | alisertib 0.015 | [9] 0.004 | gefitinib 0.031

NUTF2 (UniProt P61970)
inactive: vemurafenib -0.05 | [1] -0.014 | barasertib 0.097 | [2] 0.039 | volasertib 0.01 | [3] 0.025 | [4] -0.024 | [5] -0.043 | saracatinib -0.042 | sotrastaurin 0.008 | alvocidib 0.042 | Tubastatin A 0.034 | [6] 0.026 | defactinib 0.116 | [7] 0.008 | encorafenib 0.003 | [8] 0.033 | alisertib -0.001 | [9] -0.075 | gefitinib -0.09

Remaining list, next part.

OSBP2 (UniProt Q969R2)
inactive: vemurafenib -0.056 | [1] -0.014 | barasertib -0.055 | [2] 0.062 | volasertib -0.077 | [3] -0.001 | [5] 0.279 | saracatinib 0.068 | sotrastaurin 0.104 | alvocidib -0.211 | Tubastatin A 0.047 | [6] -0.102 | defactinib 0.011 | [7] -0.032 | encorafenib 0.04 | [8] -0.1 | alisertib 0.052 | [9] -0.033 | gefitinib 0.011
active: [4] -0.881

NUP85 (UniProt Q9BW27)
inactive: vemurafenib 0.002 | [1] 0.021 | barasertib 0.002 | [2] -0.111 | volasertib -0.209 | [3] -0.001 | [4] -0.09 | [5] 0.082 | saracatinib 0.025 | sotrastaurin -0.026 | alvocidib -0.012 | Tubastatin A -0.019 | [6] -0.015 | defactinib -0.009 | [7] 0.013 | encorafenib 0.04 | [8] -0.121 | alisertib 0 | [9] 0.021 | gefitinib 0.014

OSBPL2 (UniProt Q9H1P3)
inactive: vemurafenib 0.026 | [1] -0.061 | barasertib 0.029 | [2] -0.048 | volasertib -0.103 | [3] 0.044 | [4] -0.227 | [5] -0.033 | saracatinib 0.01 | sotrastaurin -0.014 | alvocidib 0.01 | Tubastatin A -0.099 | [6] -0.009 | defactinib 0.023 | [7] -0.089 | encorafenib 0 | [8] 0.073 | alisertib -0.146 | [9] 0.047 | gefitinib 0

OGA (UniProt O60502)
inactive: vemurafenib 0 | [1] 0.009 | barasertib 0.02 | [2] -0.016 | volasertib -0.004 | [3] 0.001 | [4] 0.043 | [5] -0.037 | saracatinib -0.006 | sotrastaurin -0.001 | alvocidib 0.015 | Tubastatin A -0.023 | [6] 0.021 | defactinib 0.001 | [7] 0.017 | encorafenib 0.029 | [8] -0.029 | alisertib 0.004 | [9] 0 | gefitinib 0.007

OXR1 (UniProt Q8N573)
inactive: vemurafenib -0.011 | [1] 0.021 | barasertib -0.013 | [2] 0.099 | volasertib 0.011 | [3] -0.071 | [4] -0.028 | [5] 0.042 | saracatinib 0.002 | sotrastaurin -0.014 | alvocidib -0.02 | Tubastatin A 0.033 | [6] 0.038 | defactinib -0.024 | [7] 0.025 | encorafenib 0.059 | [8] -0.05 | alisertib -0.036 | [9] 0.045 | gefitinib -0.047

PAAF1 (UniProt Q9BRP4)
inactive: vemurafenib 0.021 | [1] 0.006 | barasertib -0.04 | [2] 0.04 | volasertib -0.002 | [3] 0.011 | [4] -0.068 | [5] 0.072 | saracatinib 0.014 | sotrastaurin -0.016 | alvocidib -0.012 | Tubastatin A 0.016 | [6] -0.002 | defactinib -0.037 | [7] -0.017 | encorafenib 0.035 | [8] -0.038 | alisertib -0.017 | [9] 0.011 | gefitinib -0.012

PAPOLA (UniProt P51003)
inactive: vemurafenib 0.003 | [1] -0.005 | barasertib 0.008 | [2] 0.046 | volasertib 0.01 | [3] -0.02 | [4] -0.015 | [5] 0.039 | saracatinib -0.002 | sotrastaurin 0.013 | alvocidib -0.004 | Tubastatin A 0.085 | [6] 0.021 | defactinib -0.013 | [7] -0.012 | encorafenib -0.009 | [8] 0.025 | alisertib 0.01 | [9] 0.017 | gefitinib 0.018

OXSR1 (UniProt O95747)
inactive: vemurafenib 0.003 | [1] 0.036 | barasertib 0.071 | [2] -0.054 | volasertib -0.071 | [3] 0.015 | [4] 0.004 | [5] -0.063 | saracatinib 0.022 | sotrastaurin -0.011 | alvocidib 0.013 | Tubastatin A -0.106 | [6] 0.016 | defactinib 0.025 | [7] -0.049 | encorafenib 0.032 | [8] 0.205 | alisertib 0.021 | [9] 0.003 | gefitinib -0.021
